EP4578855A1, “PROLYL HYDROXYLASE INHIBITOR AND USE THEREOF” (Suzhong Pharmaceutical Group Co., Ltd., priority 2022, dated 2024)
Some of these results come from one statement about several compounds together.

By UniProt entry, the sequences of proteins in these tests, tags left out.
UniProt Q9GZT9, whole entry, species assumed: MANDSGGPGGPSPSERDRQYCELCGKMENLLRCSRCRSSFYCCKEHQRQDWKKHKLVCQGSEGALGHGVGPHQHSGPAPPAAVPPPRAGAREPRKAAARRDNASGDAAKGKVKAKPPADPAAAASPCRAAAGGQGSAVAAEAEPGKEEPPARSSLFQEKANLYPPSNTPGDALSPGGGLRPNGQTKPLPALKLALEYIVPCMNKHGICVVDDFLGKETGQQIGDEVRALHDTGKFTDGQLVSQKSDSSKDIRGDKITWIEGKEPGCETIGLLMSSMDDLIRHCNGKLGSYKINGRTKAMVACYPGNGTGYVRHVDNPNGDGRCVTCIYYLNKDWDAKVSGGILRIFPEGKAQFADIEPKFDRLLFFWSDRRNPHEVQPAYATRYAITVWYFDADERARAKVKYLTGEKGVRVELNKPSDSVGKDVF

molecular target: T1, PHD2 enzyme (Homo sapiens, UniProt Q9GZT9); test: Detection of PHD2 enzyme activity inhibition (FITC-HIF1α tracer, mP read-out); type: biochemical; conditions: summary in words
T1 construct: purchased Active motif
Description: (1) A 1×Assay buffer was prepared. […] 100 nL of 100% DMSO was added into a negative control well and a positive control well respectively. (3) An enzyme solution with 2 times final concentration was prepared with the 1×Assay buffer. (4) 5 µL of the enzyme solution with 2 times final concentration was added into a compound well and the positive control well respectively. (5) 5 µL of the 1 ×Assay buffer was added into the negative control well. (6) The 384-well plate was centrifuged at 1000 rpm for 30 seconds, oscillated and mixed evenly, and then incubated for 15 minutes. (7) A tracer solution with 2 times final concentration was prepared with the 1×Assay buffer, and 5.0 µL of the tracer solution with 2 times final concentration was added to start the reaction.

**Q.** With `O=C(O)CNC(=O)c1c(O)cc(Oc2ccccc2)n2ncnc12` [Compound in Embodiment 1] as the compound, how does the “HIF-prolyl hydroxylase domain inhibitory activity” value read?
**A.** good inhibitory activity

**Q.** For `O=C(O)CNC(=O)c1c(O)cc(Oc2ccccc2Cl)n2ncnc12` [Compound in Embodiment 2, (5-(2-chlorophenoxy)-7-hydroxy-[1,2,4]triazolyl[1,5-a]pyridine-8-carbonyl)glycine], which “HIF-prolyl hydroxylase domain inhibitory activity” value is on record?
**A.** good inhibitory activity

**Q.** For `O=C(O)CNC(=O)c1c(O)cc(Oc2cccc(Cl)c2)n2ncnc12` [Compound in Embodiment 3, (5-(3-chlorophenoxy)-7-hydroxy-[1,2,4]triazolyl[1,5-a]pyridine-8-carbonyl)glycine], which “HIF-prolyl hydroxylase domain inhibitory activity” value is on record?
**A.** good inhibitory activity

**Q.** Which “HIF-prolyl hydroxylase domain inhibitory activity” value does the source give for `O=C(O)CNC(=O)c1c(O)cc(Oc2ccc(Cl)cc2)n2ncnc12` [Compound in Embodiment 4, (5-(4-chlorophenoxy)-7-hydroxy-[1,2,4]triazolyl[1,5-a]pyridine-8-carbonyl)glycine] here?
**A.** good inhibitory activity

**Q.** `Cc1ccc(Oc2cc(O)c(C(=O)NCC(=O)O)c3ncnn23)cc1` [Compound in Embodiment 5, (5-(p-tolyloxy)-7-hydroxy-[1,2,4]triazolyl[1,5-a]pyridine-8-carbonyl)glycine] was tested. Which “HIF-prolyl hydroxylase domain inhibitory activity” value did it give?
**A.** good inhibitory activity

**Q.** With `COc1ccc(Oc2cc(O)c(C(=O)NCC(=O)O)c3ncnn23)cc1` [Compound in Embodiment 6, (5-(p-methoxyphenoxy)-7-hydroxy-[1,2,4]triazolyl[1,5-a]pyridine-8-carbonyl)glycine] as the compound, how does the “HIF-prolyl hydroxylase domain inhibitory activity” value read?
**A.** good inhibitory activity

**Q.** With `O=C(O)CNC(=O)c1c(O)cc(Oc2cccc(N3CCOCC3)c2)n2ncnc12` [Compound in Embodiment 7, (5-(3-morpholinphenoxy)-7-hydroxy-[1,2,4]triazolyl[1,5-a]pyridine-8-carbonyl)glycine] as the compound, how does the “HIF-prolyl hydroxylase domain inhibitory activity” value read?
**A.** good inhibitory activity

**Q.** `O=C(O)CNC(=O)c1c(O)cc(Oc2ccc(F)cc2)n2ncnc12` [Compound in Embodiment 8, (5-(4-fluorophenoxy)-7-hydroxy-[1,2,4]triazolyl[1,5-a]pyridine-8-carbonyl)glycine] was tested. Which “HIF-prolyl hydroxylase domain inhibitory activity” value did it give?
**A.** good inhibitory activity

**Q.** `CCCOc1cc(O)c(C(=O)NCC(=O)O)c2ncnn12` [Compound in Embodiment 9, (5-(propoxy)-7-hydroxy-[1,2,4]triazolyl[1,5-a]pyridine-8-carbonyl)glycine] was tested. Which “HIF-prolyl hydroxylase domain inhibitory activity” value did it give?
**A.** good inhibitory activity

**Q.** Which “HIF-prolyl hydroxylase domain inhibitory activity” value does the source give for `O=C(O)CNC(=O)c1c(O)cc(C#Cc2ccccc2)n2ncnc12` [Compound in Embodiment 10, [(7-hydroxy-5-(phenylethynyl)-[1,2,4]triazolo[1,5-a]pyridine-8-carbonyl)amino]acetic acid] here?
**A.** good inhibitory activity

**Q.** `O=C(O)CNC(=O)c1c(O)cc(C=Cc2ccccc2)n2ncnc12` [Compound in Embodiment 11, [(7-hydroxy-5-(styryl)-[1,2,4]triazolo[1,5-a]pyridine-8-carbonyl)amino]acetic acid] was tested. Which “HIF-prolyl hydroxylase domain inhibitory activity” value did it give?
**A.** good inhibitory activity

**Q.** Which “HIF-prolyl hydroxylase domain inhibitory activity” value does the source give for `O=C(O)CNC(=O)c1c(O)cc(C2CCc3ccccc3C2)n2ncnc12` (stereo not drawn) [Compound in Embodiment 12, [(7-hydroxy-5-(1,2,3,4-tetrahydronaphthalene-2-yl)-[1,2,4]triazolo[1,5-a]pyridine-8-carbonyl)amino]acetic acid] here?
**A.** good inhibitory activity
